From patent US20250206836A1
No constants are given. Whether binding was seen depends on the method and setting. Some results given as binding are weak or reduced against the parent protein; the word gives no strength.

Chains of the proteins cited; added tags and fusions are not shown. Lines headed by an entry give the natural chain unless they say otherwise; changes in a name come on top.
UniProt P16671: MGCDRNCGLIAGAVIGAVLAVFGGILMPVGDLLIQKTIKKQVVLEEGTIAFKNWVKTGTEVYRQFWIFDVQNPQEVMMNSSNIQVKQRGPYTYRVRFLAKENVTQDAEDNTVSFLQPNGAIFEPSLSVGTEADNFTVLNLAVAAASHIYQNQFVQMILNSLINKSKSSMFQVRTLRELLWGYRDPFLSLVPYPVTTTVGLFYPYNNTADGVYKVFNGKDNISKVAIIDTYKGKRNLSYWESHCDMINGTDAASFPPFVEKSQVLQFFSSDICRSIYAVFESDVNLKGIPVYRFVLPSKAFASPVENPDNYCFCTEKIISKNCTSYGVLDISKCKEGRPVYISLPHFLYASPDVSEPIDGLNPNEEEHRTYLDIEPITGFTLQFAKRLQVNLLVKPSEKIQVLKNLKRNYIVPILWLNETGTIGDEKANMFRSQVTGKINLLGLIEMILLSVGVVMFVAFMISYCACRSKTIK
UniProt Q08857: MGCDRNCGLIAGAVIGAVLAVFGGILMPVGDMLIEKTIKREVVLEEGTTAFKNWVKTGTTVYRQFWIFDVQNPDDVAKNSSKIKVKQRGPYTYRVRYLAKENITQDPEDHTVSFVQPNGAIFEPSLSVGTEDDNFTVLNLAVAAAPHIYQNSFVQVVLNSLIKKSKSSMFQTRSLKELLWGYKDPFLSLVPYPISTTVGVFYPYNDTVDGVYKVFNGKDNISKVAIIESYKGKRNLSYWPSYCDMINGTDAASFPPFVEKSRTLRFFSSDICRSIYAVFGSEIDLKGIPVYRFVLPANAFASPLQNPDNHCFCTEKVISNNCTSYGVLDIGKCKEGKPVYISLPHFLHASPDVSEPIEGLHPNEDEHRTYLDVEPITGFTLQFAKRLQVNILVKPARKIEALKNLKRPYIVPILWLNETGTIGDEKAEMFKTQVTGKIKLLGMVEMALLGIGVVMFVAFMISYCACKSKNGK

Assays:
[1] = molecular target: human CD36 (on HEK 293 or SCC25 cells) (human) (UniProt P16671); assay: FACS, SCC25 cells
[2] = molecular target: human CD36 (Sino Biological) (human) (UniProt P16671); assay: ELISA, plates coated with human CD36
[3] = molecular target: mouse CD36 protein (mouse) (UniProt Q08857); assay: ELISA, plates coated with mouse CD36
[4] = molecular target: mouse CD36 protein (mouse) (UniProt Q08857); assay: ELISA, plates coated with mouse CD36 protein, antibody titrated, OD630nm
[5] = molecular target: human CD36 (Sino Biological) (human) (UniProt P16671); assay: ELISA, plates coated with human CD36 (Sino Biological), antibody titrated, OD630nm
[6] = molecular target: human CD36 (on HEK 293 or SCC25 cells) (human) (UniProt P16671); assay: FACS on SCC25 cells stably expressing human CD36, anti-human fluorescently labelled secondary antibody, GeoMFI
[7] = molecular target: human CD36 (Sino Biological) (human) (UniProt P16671); assay: ELISA
[8] = molecular target: mouse CD36 protein (mouse) (UniProt Q08857); assay: ELISA

Measured: binding

B1: 1G03 (antibody, V domains shown)
VH: QVQLKQSGADLVRPGASVKLSCKASGYTFTDYYINWVKQRPGQGLEWIARIYPGSGNTYYNEKFKGKATLTAEKSSSTAYMQLSSLTSEDSAVYFCARGIGGGFGMDYWGQGTSVTVSS
VL: SIVMTQTPKFLLVSAGDRITITCKASQSVSDDVAWYQQKPGQSPKLLIYYASNRYTGVPDRFTGSGYGTDFTFTISTVQAEDLAVYFCQQDYSSPLTFGAGTKLEIK
not listed: [7] | [8]
binds: all other assays above

B2: 1G05 (antibody, V domains shown)
VH: QVQLKQSGADLVRPGASVKLSCKASGYTFTDYYINWVKQRPGQGLEWIARIYPGSGNTYYNEKFKGKATLTAEKSSSTAYMQLSSLTSEDSAVYFCARGIGGGFGMDYWGQGTSVTVSS
VL: SIVMTQTPKFLLVSAGDRITITCKASQSVSDDVAWYQQKPGQSPKLLIYYASNRYTGVPDRFTGSGYGTDFTFTISTVQAEDLAVYFCQQDYSSPLTFGAGTKLEIK
binds: all assays above

B3: 1G07 (antibody, V domains shown)
VH: QVQLKQSGADLVRPGASVKLSCKASGYTFTDYYINWVKQRPGQGLEWIARIYPGSGNTYYNEKFKGKATLTAEKSSSTAYMQLSSLTSEDSAVYFCARGIGGGFGMDYWGQGTSVTVSS
VL: SIVMTQTPKFLLVSAGDRITITCKASQSVSDDVAWYQQKPGQSPKLLIYYASNRYTGVPDRFTGSGYGTDFTFTISTVQAEDLAVYFCQQDYSSPLTFGAGTKLEIK
not listed: [4] | [5]
binds: all other assays above
